Measurements from US12286437B2, “Cardiac sarcomere inhibitors” (Cytokinetics, Inc., priority 2021, dated 2025).
Some entries share one result that the patent states for a list of compounds.

Chains of the proteins cited; added tags and fusions are not shown.
UniProt P08684, whole entry: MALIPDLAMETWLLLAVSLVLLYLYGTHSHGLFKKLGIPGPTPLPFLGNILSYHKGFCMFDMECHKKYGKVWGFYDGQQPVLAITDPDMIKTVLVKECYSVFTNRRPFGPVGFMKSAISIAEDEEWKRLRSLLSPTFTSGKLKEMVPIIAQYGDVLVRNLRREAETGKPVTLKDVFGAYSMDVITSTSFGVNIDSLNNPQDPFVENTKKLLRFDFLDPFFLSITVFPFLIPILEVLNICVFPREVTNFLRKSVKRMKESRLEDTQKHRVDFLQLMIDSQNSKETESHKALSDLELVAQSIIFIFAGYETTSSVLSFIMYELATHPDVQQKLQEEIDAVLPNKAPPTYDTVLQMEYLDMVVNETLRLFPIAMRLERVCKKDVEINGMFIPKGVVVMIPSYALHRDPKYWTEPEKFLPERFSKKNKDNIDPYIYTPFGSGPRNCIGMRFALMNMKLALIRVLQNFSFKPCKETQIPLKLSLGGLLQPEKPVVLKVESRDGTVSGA

Target: T1, CYP3A4 (Homo sapiens, UniProt P08684)
T1 construct: Pooled human microsomes and selective CYP probe substrates were used; from tissue; host or cells: pooled human liver microsomes
Experiment: Time-dependent inhibition of CYP3A4 in human liver microsomes (testosterone and midazolam probes)
Format: in vitro ADME
Conditions: both midazolam and testosterone probes, 25 and 50 μM
Method: An assessment of the time-dependent Inhibitory Potential of the test compounds against Principal Human Cytochrome P450 Isozymes using Human Liver Microsomes was also carried out using standard methods (Grimm et al, Drug Metab. Dispos., July; 37(7):1355-70. doi: 10.1124/dmd.109.026716, 2009). Pooled human microsomes and selective CYP probe substrates were used for in vitro assessment of test compounds at 25 and 50 μM as time-dependent inhibitors of […] human hepatic cytochrome P450 isozymes (CYP1A2, 2B6, 2C9, 2C19, 2D6, and 3A4). LC-MS/MS was used to quantify metabolite formation. The inhibition of each P450 enzyme in human liver microsomes was measured as the percentage decrease in the activity of marker metabolite formation as measured by LC-MS/MS compared to non-inhibited controls (=100% activity) at time zero and after 30 minutes incubation. The occurrence of any time dependent inhibition was then expressed as the fold change in enzyme activity at time zero relative to the activity after 30 minutes incubation.

Row | Compound | change in fold activity of 3A4 (time dependent inhibition)
1 | CC(C)N1CC(=O)N(Cc2ccc(Cl)c(F)c2)C2(CN(c3cccnn3)C2)C1=O [Compound 8, 5-(4-chloro-3-fluorobenzyl)-8-isopropyl-2-(pyridazin-3-yl)-2,5,8-triazaspiro[3.5]nonane-6,9-dione] | ≤ 1.2 fold
2 | C[C@H]1CC[C@H](N2CC(=O)N(Cc3ccc(F)c(Cl)c3)C3(CN(C(N)=O)C3)C2=O)CC1 [Compound 7, 5-(3-chloro-4-fluorobenzyl)-8-((1r,4r)-4-methylcyclohexyl)-6,9-dioxo-2,5,8-triazaspiro[3.5]nonane-2-carboxamide] | ≤ 1.2 fold
3 | CC(C)N1CC(=O)N(Cc2ccc(C(F)(F)F)cc2)C2(CN(c3cccnn3)C2)C1=O [Compound 13, 8-isopropyl-2-(pyridazin-3-yl)-5-(4-(trifluoromethyl)benzyl)-2,5,8-triazaspiro[3.5]nonane-6,9-dione] | ≤ 1.2 fold
4 | C[C@H]1CC[C@H](N2CC(=O)N(Cc3ccc(F)c(F)c3)C3(CN(C=O)C3)C2=O)CC1 [Compound 4, 5-(3,4-difluorobenzyl)-8-((1r,4r)-4-methylcyclohexyl)-6,9-dioxo-2,5,8-triazaspiro[3.5]nonane-2-carbaldehyde] | ≤ 1.2 fold

Same assay, conditions: either at one of the concentrations tested or with one of the probe substrates

Row | Compound | change in the fold activity of 3A4 (time dependent inhibition)
5 | Cc1cc(CN2C(=O)CN([C@H]3CC[C@H](C)CC3)C(=O)C23CN(C(N)=O)C3)ccc1F [Compound 6, 5-(4-fluoro-3-methylbenzyl)-8-((1r,4r)-4-methylcyclohexyl)-6,9-dioxo-2,5,8-triazaspiro[3.5]nonane-2-carboxamide] | greater than 1.2 fold
6 | C[C@H]1CC[C@H](N2CC(=O)N(Cc3ccc(Cl)cc3)C3(CN(C(N)=O)C3)C2=O)CC1 [Compound 18, 5-(4-chlorobenzyl)-8-((1r,4r)-4-methylcyclohexyl)-6,9-dioxo-2,5,8-triazaspiro[3.5]nonane-2-carboxamide] | greater than 1.2 fold
7 | C[C@H]1CC[C@H](N2CC(=O)N(Cc3ccc(F)c(F)c3)C3(CN(C(N)=O)C3)C2=O)CC1 [Compound 5, 5-(3,4-difluorobenzyl)-8-((1r,4r)-4-methylcyclohexyl)-6,9-dioxo-2,5,8-triazaspiro[3.5]nonane-2-carboxamide] | greater than 1.2 fold
